# PubChem BioAssay AID1259415 (National Center for Advancing Translational Sciences (NCATS), 2018)
# Among all 410,000 compounds or so, about 18,000 (4.4%) were called active. The inconclusive results got no clear call from the source; some entries with a clear call stand among them for comparison. Rule as the data show it: active = activity change below about -60%; inconclusive = no clear call, values can overlap the other calls; inactive = above about -39%.
# Experiment: qHTS Assay for inhibitors of the human cytomegalovirus (HCMV)
# Settings: HFF cells, HCMV-luciferase reporter, 72 h; at 57.5 µM; stronger effect = lower value
# Method in brief: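 Inhibition of viral replication was scored as loss of reporter luminescence in HFFs infected with HCMV-luciferase (MOI 1 PFU/cell) for 72 h; compounds tested at 2 doses, normalized to buffer and Salinomycin controls.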
# % is scaled to controls: 0 for no effect and ±100 for the full control effect.
row,SMILES,"activity change, negative = inhibition"
1,Cc1scc(C(=O)NNC(=S)NC(C)c2ccccc2)c1C (stereo unspecified),active: -77.6%
2,O=C(CCCN1C(=O)/C(=C\c2ccccc2)SC1=S)N1CCOCC1,active: -98.5%
3,C=CCN(Cc1nc(-c2ccc(OC)c(OC)c2)oc1C)C1CCS(=O)(=O)C1 (stereo unspecified),inconclusive: -43.8%
4,Cc1ccc(C)c(-n2cc(CNCCCn3cccn3)c(-c3ccccc3)n2)c1,active: -65.3%
5,Cc1sc2c(c1C)C(c1ccc(C(C)(C)C)cc1)=NCC(=O)N2CC(=O)Nc1nccs1,inactive: 4.1%
6,COc1ccc(NC(=O)C23CC4CC(C2)CC(c2ccccc2)(C4)C3)c(OC)c1,inconclusive: -56.2%
7,COc1ccc(C(=O)/C=C/C(=O)N(CC(=O)NCCC(C)C)Cc2cccs2)c(O)c1,active: -99.8%
8,FC(F)(F)c1cccc(NC(=S)Nc2cccc(NC(=S)Nc3cccc(C(F)(F)F)c3)n2)c1,inconclusive: -51.9%
9,Cc1ccc2c(C(=O)CN3CCCC3)c(C)[nH]c2c1,active: -81.5%
10,COc1ccc(S(=O)(=O)N2CCCCCC2)cc1C(=O)N(C)Cc1ccc(C)cc1,inactive: -35.6%
11,COc1ccc(OCC(O)CN2CCCCCC2)cc1 (stereo unspecified),inactive: 15.1%
12,COc1ccc(N(C)S(=O)(=O)c2cccc(C(=O)Nc3nnc(C4CC4)s3)c2)cc1,inconclusive: -41.7%
13,O=C(COC(=O)c1cccnc1Cl)c1ccc(F)cc1,inconclusive: -42.4%
14,CCC(C)NC(=O)CSc1nnc(-c2cc(-c3cccs3)nc3ccccc23)o1 (stereo unspecified),inactive: -19.4%
15,COc1ccc(-c2coc3c(C(=O)NCC4CC4)cccc23)c(C)c1,inconclusive: -47.4%
16,Cc1ccc(F)cc1CNC(=O)C1CCC(=O)N(CCc2ccccc2)C1 (stereo unspecified),inactive: 35.7%
17,c1ccc(P(c2ccccn2)c2ccccn2)cc1,inconclusive: -42.1%
18,O=C(/C=C/c1cccs1)NC1CCCC1,inactive: -25.8%
19,COCCn1c(CNC(=O)c2cccc(C)c2)nc2cccnc21,inconclusive: -52.8%

row,SMILES,"activity change, negative = inhibition"
1,O=C(Oc1ccc2ccccc2c1Cl)N1CCCC1,inconclusive: -49.2%
2,O=C(NCc1cccnc1)c1ccc2sc([C@@H]3O[C@H](CO)[C@H](O)[C@H](O)[C@H]3O)nc2c1,inconclusive: -58.3%
3,CCCCNC(=O)CC1Nc2ccccc2NC1=O (stereo unspecified),inactive: -26.3%
4,CCOC(=O)C1=C(CS(=O)(=O)c2ccc(F)c(C)c2)NC(=O)NC1c1ccc(O)c(O)c1 (stereo unspecified),inconclusive: -50.5%
5,Cc1cc(Br)ccc1NC(=O)CN(C)C(=O)C1CCN(c2ncnc3sc(C)c(C)c23)CC1,active: -83.4%
6,CCc1nnc(NC(=O)CSc2ccc(-c3nc4ccccc4[nH]3)cn2)s1,active: -93.6%
7,COc1ccc(C(=O)Nc2ccc(Cl)cc2C(=O)N2CCCC(C)C2)cc1 (stereo unspecified),active: -100%
8,CN(c1ccc(OCC(=O)NC2CCC(O)CC2)cc1)S(=O)(=O)c1ccc(Cl)cc1 (stereo unspecified),inactive: -12.4%
9,Cn1c(=O)n(Cc2ccccc2)c(=O)c2c1nc1n2CCN1c1ccccc1,inconclusive: -40.7%
10,COc1cc(CN2CCc3ccccc3C2)ccc1O,active: -99.6%
11,CCCSc1oc(-c2ccco2)nc1S(=O)(=O)c1ccccc1,inconclusive: -58.6%
12,CCOC(=O)[C@]12CCCC=C1N(Cc1ccc(Cl)cc1Cl)C(=O)[C@H](CC(=O)NCc1cccc3ccccc13)C2,inconclusive: -43.9%
13,CCCOc1cccc(C(=O)N(Cc2sccc2C)C2CCS(=O)(=O)C2)c1 (stereo unspecified),inactive: -20%
14,O=C(/C=C/c1ccco1)NC(=S)Nc1ccc(N2CCCC2)cc1,inconclusive: -46.3%
15,Cc1cc(Cl)ccc1OCC(=O)N(Cc1sccc1C)C1CCS(=O)(=O)C1 (stereo unspecified),inactive: -4.78%
16,CN(C)S(=O)(=O)c1cccc(NC(=O)CSc2nc3ccccc3[nH]2)c1,active: -60.6%
17,CC(C)c1cc(CNC(=O)CC2C(=O)NCCN2CC2CCCCC2)on1 (stereo unspecified),inactive: -4.57%
18,CC(=O)Nc1ccc(OCC(=O)Nc2ccc(Cl)c(S(=O)(=O)N3CCOCC3)c2)cc1,active: -71.2%
19,Cc1ccc(C(=O)O)cc1NC(=O)C1CCCN1S(=O)(=O)c1cccc2nsnc12 (stereo unspecified),inactive: 8.65%

row,SMILES,"activity change, negative = inhibition"
1,O=[N+]([O-])c1ccccc1OCc1nc(-c2cccs2)no1,inconclusive: -40.5%
2,COc1ccc2c(c1)c(=O)c(S(=O)(=O)c1ccc(F)cc1)cn2Cc1ccccc1Cl,inactive: 2.69%
3,O=C1NCCc2onc(-c3ccc(Br)cc3)c21,inactive: -8.26%
4,CN1CCN(c2ccc(Nc3ccnc4cc(Cl)ccc34)cc2)CC1,active: -82.6%
5,COc1ccc(NS(=O)(=O)c2ccc3nc(COc4cccc5ccccc45)[nH]c3c2)cc1,active: -79.2%
6,COCC(=O)N1C[C@H]2CON(C)[C@H]2C[C@H]1c1ccc(N2CCCCC2)cc1,inactive: 6.94%
7,O=C(Nc1cccc(S(=O)(=O)N2CCCC2)c1)c1ccc2c(c1)OCO2,inactive: 18%
8,Cc1noc(C)c1NC(=O)N(C)C[C@H]1Oc2c(NC(=O)NC(C)C)cccc2C(=O)N([C@H](C)CO)C[C@@H]1C,inactive: 6.07%
9,Cc1cccc(C)c1OCCOC(=O)c1n[nH]c2ccccc12,inconclusive: -52.2%
10,O=C(NCC(c1ccco1)N1CCOCC1)c1ccc(F)cc1 (stereo unspecified),inconclusive: -40.9%
11,CCOC(=O)c1c(-c2ccccc2)csc1NC(=O)CSc1nncs1,inactive: 0.278%
12,Cc1ccc(-c2n[nH]c(=S)n2/N=C/c2cccn2C)cc1,inconclusive: -43%
13,CCOC(=O)C1CCN(C(=O)COC(=O)c2ccc([N+](=O)[O-])o2)CC1,inconclusive: -48.9%
14,Cc1ccc2nc(SCC3CCCCO3)[nH]c2c1 (stereo unspecified),inactive: -6.72%
15,Cc1oc(-c2ccc(C(=O)Nc3ccc(F)cc3)cc2)nc1COc1ccccc1,inconclusive: 0%
16,COc1cccc(N2CCN(C(=O)Nc3ccccc3Cl)CC2)c1,inconclusive: -57.8%
17,Cc1nc2cc(NC(=O)Nc3ccc(N4CCOCC4)cc3)ccc2n1C,active: -63.4%
18,CC1(C(=O)NS(=O)(=O)c2cccc(Cl)c2)CCN1C(=O)CC1CC1 (stereo unspecified),inconclusive: -51.4%

# Some values from the results shown:
# activity change, negative = inhibition, O=C1NCCc2onc(-c3ccc(Br)cc3)c21 reads inactive: -8.26%
# activity change, negative = inhibition, CCOC(=O)C1CCN(C(=O)COC(=O)c2ccc([N+](=O)[O-])o2)CC1 reads inconclusive: -48.9%
